No constants are given. Whether binding was seen depends on the method and setting. In cells and extracts the contact can be indirect. Some binding calls cover weakened binding; strength is not graded here.
Experiments:
GST-GABARAP-L2 (human) = GST-GABARAP-L2 (human) (UniProt P60520); experiment: pull-down; 50 µg GST-ATG8 on Glutathione-Sepharose 4B beads, HEK293A lysate overnight at 4 °C, washes in TNTE; immunoblot; only the target purified
GST-LC3C (human) = GST-LC3C (human) (UniProt Q9BXW4); experiment: as above
MYC-LC3A (human) = MYC-LC3A (human) (UniProt Q9H492); experiment: co-IP; MYC-Trap beads, lysates of HEK293A cells expressing MYC-ATG8 constructs, TNTE buffer, 2 h at 4 °C; immunoblot of bound proteins
MYC-GABARAP-L2 (human) = MYC-GABARAP-L2 (human) (UniProt P60520); experiment: as above
MYC-LC3C (human) = MYC-LC3C (human) (UniProt Q9BXW4); experiment: as above
GST-LC3A (human) = GST-LC3A (human) (UniProt Q9H492); experiment: pull-down; 50 µg GST-ATG8 on Glutathione-Sepharose 4B beads, HEK293A lysate overnight at 4 °C, washes in TNTE; immunoblot; only the target purified
MYC-GABARAP (human) = MYC-GABARAP (human) (UniProt O95166); experiment: co-IP; MYC-Trap beads, lysates of HEK293A cells expressing MYC-ATG8 constructs, TNTE buffer, 2 h at 4 °C; immunoblot of bound proteins
[1] = target: GFP-GABARAP E8R/H9R (human) (UniProt O95166); experiment: co-IP; GFP-TRAP beads, lysates of HEK293A cells expressing GFP-GABARAP or GFP-LC3B constructs, TNTE buffer, 2 h at 4 °C; immunoblot of endogenous proteins, quantified
GFP-GABARAP Q59E (human) = GFP-GABARAP Q59E (human) (UniProt O95166); experiment: as above
GFP-GABARAP (human) = GFP-GABARAP (human) (UniProt O95166); experiment: as above

The chains behind the UniProt entries cited, without tags or fusion partners. Where a name states a change or a piece, a line headed by the entry shows the natural chain unless it says otherwise. A line that says so, or that is headed by a name, gives the form on record, which may keep a tag or linker. Residues count along the entry.
UniProt Q9BXW4, residues 1-126: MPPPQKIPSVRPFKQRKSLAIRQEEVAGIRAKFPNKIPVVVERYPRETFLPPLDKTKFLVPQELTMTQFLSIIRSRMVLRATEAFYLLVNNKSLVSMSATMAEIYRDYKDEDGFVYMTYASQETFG
PCM1 (pericentriolar material 1) (Q15154-5, form named): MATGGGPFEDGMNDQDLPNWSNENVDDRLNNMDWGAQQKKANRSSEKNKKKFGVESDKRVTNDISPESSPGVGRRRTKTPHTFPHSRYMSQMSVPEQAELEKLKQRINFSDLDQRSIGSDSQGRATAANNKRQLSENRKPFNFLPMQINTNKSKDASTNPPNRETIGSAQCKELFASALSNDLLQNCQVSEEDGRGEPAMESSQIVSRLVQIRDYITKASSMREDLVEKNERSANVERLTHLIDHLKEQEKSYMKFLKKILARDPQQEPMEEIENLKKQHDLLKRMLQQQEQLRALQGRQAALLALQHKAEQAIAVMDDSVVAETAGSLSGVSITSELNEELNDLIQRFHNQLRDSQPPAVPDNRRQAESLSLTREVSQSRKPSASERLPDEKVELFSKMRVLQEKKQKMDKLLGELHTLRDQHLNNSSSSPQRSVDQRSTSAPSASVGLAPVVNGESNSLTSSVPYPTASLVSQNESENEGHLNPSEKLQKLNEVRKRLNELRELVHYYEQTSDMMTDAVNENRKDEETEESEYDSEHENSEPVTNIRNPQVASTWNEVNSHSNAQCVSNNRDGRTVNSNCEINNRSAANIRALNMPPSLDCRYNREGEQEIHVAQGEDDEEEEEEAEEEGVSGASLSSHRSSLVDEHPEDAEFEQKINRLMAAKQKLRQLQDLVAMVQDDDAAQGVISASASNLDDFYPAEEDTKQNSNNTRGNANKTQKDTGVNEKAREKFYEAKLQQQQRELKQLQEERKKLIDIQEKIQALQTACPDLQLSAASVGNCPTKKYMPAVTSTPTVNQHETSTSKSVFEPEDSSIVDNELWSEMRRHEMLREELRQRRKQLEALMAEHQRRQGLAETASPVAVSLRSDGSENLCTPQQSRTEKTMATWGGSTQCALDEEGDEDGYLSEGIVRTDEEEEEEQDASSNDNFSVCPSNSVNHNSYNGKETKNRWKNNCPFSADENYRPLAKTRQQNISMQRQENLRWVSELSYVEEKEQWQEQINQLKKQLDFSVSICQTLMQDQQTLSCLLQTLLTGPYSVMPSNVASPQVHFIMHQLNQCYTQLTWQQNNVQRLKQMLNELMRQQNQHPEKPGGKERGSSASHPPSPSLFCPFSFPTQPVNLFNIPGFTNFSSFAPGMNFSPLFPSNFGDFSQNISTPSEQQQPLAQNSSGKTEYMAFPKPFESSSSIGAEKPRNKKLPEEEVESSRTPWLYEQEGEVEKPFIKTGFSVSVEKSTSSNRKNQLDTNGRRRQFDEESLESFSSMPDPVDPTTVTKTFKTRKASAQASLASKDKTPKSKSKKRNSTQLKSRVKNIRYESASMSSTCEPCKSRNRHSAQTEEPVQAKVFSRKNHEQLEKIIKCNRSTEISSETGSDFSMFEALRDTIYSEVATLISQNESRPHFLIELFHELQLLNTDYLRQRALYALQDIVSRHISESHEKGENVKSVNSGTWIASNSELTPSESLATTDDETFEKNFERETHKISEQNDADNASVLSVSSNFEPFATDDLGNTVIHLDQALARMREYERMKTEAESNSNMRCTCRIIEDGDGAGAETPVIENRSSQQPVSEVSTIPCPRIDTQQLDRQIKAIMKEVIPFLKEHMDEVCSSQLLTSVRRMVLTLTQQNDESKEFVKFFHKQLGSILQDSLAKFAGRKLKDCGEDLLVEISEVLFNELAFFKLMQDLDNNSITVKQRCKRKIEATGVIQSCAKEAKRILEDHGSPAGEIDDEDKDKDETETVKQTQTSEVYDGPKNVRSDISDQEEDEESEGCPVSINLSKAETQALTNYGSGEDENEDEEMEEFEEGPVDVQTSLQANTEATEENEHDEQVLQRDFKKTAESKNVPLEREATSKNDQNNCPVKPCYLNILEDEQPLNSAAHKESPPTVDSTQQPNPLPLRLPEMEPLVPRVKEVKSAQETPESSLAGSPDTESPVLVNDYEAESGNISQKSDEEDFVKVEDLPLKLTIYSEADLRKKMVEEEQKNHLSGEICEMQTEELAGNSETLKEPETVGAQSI
GFP-PCM1 D1954A/F1955A/V1958A (Q15154-5, form named): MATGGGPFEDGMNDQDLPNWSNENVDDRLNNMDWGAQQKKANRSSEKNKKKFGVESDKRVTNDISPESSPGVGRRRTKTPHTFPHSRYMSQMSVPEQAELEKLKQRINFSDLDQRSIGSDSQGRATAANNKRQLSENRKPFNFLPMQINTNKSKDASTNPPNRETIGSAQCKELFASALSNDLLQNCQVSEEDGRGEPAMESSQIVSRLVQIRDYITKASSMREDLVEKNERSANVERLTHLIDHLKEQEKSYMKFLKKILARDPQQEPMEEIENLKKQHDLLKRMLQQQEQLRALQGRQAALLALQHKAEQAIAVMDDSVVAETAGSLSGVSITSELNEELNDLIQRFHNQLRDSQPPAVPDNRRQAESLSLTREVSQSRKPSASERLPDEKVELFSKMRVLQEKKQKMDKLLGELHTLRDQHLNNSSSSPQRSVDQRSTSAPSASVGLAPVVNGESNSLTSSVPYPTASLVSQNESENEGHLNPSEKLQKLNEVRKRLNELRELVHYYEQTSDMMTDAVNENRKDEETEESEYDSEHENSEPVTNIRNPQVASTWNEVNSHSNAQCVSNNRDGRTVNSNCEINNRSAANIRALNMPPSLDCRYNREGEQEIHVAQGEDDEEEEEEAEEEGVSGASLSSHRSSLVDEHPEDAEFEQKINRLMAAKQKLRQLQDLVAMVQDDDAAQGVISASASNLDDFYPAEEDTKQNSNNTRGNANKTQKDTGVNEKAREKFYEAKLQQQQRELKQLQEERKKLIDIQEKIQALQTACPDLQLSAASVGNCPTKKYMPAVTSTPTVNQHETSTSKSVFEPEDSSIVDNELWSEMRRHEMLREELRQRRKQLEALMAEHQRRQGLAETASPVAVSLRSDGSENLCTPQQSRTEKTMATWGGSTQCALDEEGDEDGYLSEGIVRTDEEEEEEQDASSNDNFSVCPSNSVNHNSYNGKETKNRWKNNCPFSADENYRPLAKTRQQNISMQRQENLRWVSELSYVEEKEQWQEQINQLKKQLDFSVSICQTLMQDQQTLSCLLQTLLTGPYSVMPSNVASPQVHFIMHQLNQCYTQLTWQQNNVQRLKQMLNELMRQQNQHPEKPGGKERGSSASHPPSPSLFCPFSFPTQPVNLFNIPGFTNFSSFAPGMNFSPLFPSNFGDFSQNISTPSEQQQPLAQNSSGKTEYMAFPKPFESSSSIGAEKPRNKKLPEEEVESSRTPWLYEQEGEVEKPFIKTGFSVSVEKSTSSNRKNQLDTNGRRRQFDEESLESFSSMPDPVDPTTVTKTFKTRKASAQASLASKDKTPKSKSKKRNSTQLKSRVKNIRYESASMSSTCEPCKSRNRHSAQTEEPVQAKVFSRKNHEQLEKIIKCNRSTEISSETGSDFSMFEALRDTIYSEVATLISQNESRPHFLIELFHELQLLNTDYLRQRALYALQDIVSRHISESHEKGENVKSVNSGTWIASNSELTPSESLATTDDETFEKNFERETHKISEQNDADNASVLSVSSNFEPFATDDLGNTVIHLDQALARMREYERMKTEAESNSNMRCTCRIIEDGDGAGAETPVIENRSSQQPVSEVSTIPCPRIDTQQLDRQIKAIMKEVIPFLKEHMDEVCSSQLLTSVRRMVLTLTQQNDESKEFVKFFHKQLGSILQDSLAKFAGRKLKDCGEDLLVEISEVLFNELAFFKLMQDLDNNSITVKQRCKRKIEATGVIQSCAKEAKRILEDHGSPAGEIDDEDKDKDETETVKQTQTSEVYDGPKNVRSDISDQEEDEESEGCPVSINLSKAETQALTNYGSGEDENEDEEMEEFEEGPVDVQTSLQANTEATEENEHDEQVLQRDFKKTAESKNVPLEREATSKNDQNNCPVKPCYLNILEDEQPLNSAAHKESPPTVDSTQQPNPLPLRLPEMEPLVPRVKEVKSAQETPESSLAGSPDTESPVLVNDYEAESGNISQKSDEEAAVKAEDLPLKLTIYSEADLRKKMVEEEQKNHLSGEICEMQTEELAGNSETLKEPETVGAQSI
GFP-PCM1 K1957I (Q15154-5, form named): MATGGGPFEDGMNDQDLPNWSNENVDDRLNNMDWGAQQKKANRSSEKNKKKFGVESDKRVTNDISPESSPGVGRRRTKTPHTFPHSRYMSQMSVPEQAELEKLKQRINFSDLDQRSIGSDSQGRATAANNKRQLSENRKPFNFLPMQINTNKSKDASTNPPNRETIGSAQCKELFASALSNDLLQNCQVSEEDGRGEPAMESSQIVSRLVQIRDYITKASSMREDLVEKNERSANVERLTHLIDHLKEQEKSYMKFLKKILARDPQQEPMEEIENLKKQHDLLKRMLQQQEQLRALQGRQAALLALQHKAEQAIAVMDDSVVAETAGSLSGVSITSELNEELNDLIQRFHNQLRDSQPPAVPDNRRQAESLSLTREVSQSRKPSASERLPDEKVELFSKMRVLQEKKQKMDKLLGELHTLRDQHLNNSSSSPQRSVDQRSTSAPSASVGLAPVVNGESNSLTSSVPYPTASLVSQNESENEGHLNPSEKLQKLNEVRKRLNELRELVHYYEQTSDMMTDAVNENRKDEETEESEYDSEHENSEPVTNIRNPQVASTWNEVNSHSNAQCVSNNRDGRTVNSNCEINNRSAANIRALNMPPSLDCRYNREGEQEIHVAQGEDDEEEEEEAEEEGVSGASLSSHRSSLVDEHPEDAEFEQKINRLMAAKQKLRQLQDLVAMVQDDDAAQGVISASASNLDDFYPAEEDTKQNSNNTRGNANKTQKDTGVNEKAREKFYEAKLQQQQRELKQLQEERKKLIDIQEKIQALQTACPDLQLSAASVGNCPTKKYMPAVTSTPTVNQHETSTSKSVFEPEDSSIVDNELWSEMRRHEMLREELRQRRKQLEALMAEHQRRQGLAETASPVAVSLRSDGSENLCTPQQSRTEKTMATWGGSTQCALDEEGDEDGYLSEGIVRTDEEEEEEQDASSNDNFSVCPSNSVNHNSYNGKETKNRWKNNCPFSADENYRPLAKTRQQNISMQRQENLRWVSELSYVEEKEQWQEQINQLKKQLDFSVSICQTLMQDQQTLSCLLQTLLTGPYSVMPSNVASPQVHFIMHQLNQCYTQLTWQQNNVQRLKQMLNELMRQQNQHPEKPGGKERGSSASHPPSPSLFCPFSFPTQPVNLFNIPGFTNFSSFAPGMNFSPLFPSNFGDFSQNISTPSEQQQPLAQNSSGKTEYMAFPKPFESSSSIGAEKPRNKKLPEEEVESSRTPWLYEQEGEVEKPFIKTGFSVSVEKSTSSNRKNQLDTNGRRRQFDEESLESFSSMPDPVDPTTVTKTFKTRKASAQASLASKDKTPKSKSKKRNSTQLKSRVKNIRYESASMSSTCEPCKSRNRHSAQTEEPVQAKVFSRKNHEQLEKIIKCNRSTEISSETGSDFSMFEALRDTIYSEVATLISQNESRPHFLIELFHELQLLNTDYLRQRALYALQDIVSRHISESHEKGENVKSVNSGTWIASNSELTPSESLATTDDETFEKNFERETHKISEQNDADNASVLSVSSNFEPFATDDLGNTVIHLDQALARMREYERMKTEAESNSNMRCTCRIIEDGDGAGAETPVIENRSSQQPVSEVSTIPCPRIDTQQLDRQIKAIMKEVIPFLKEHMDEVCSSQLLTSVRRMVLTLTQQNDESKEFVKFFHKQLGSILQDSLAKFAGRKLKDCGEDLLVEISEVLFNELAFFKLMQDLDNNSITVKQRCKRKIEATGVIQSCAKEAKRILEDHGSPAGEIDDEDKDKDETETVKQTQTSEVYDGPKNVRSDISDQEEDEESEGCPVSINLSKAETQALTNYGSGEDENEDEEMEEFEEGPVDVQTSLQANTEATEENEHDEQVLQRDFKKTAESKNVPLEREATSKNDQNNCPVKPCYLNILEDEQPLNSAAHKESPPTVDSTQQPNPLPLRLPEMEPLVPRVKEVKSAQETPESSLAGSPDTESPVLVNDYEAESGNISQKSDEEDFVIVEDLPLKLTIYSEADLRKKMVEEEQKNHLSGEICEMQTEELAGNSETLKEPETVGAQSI

| Substance | binding (GST-GABARAP-L2 (human)) | binding (GST-LC3C (human)) | binding (MYC-LC3A (human)) | binding (MYC-GABARAP-L2 (human)) | binding (MYC-LC3C (human)) | binding (GST-LC3A (human)) | binding (MYC-GABARAP (human)) | binding [1] | binding (GFP-GABARAP Q59E (human)) | binding (GFP-GABARAP (human)) |
| --- | --- | --- | --- | --- | --- | --- | --- | --- | --- | --- |
| GFP-PCM1 wild type (from UniProt Q15154-5 1-2016) | binds | binds | – | – | – | – | – | – | – | – |
| p62 (SQSTM1) (from UniProt Q13501 1-440) | – | – | binds | binds | binds | – | – | – | – | – |
| GFP-PCM1 D1954A/F1955A/V1958A (from UniProt Q15154-5 1-2016) | no binding | no binding | – | – | – | no binding | – | – | – | – |
| GFP-PCM1 K1957I (from UniProt Q15154-5 1-2016) | binds | binds | – | – | – | binds | – | – | – | – |
| FIP200 (from UniProt Q8TDY2 1-1594) | – | – | binds weakly | binds | binds | – | binds | binds | binds | binds |
| PCM1 (pericentriolar material 1) (from UniProt Q15154-5 1-2016) | – | – | binds weakly | binds | binds | – | – | – | – | – |
